Laboratory results as given in PMC10325919.
No constants are given. Whether binding was seen depends on the method and setting. For some of these results: Binding seen in cells or lysates may run through a third protein. Some entries that bind do so weakly or less than the wild type. For some of these results: Where a sequence is shown, tags or fusion partners need not be part of it.

By UniProt entry, the sequences of proteins in these tests, tags left out. Residues count along the entry.
UniProt Q07021, residues 74-282: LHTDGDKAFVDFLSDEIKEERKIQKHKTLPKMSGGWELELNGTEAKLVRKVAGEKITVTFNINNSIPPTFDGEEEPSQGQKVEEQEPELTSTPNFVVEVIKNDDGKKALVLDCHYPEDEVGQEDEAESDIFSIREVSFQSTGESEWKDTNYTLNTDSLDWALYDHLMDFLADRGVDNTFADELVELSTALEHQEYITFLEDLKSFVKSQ

How the values were obtained:
[1] = biological target: FLAG-tagged MIER1 ELM2-SANT (aa:171–350) (UniProt Q8N108); assay: SEC-MALS; gel filtrated pure MIER1(aa:171–350):HDAC1 complex (co-expressed) reapplied to a Superdex S200 column with refractive index and MALS detectors; both purified
[2] = biological target: T1, FLAG-tagged MIER1(aa:171–512) (UniProt Q8N108); assay: co-IP + SEC; FLAG-tagged bait transfected in HEK293F (with untagged partners where stated); lysate on anti-FLAG M2 resin, washed in 50 mM Tris/HCl pH 7.5, 50 mM potassium acetate, eluted by TEV protease, then Superdex S200 gel filtration; fractions on SDS-PAGE, bands identified by mass spectrometry
T1 sequence: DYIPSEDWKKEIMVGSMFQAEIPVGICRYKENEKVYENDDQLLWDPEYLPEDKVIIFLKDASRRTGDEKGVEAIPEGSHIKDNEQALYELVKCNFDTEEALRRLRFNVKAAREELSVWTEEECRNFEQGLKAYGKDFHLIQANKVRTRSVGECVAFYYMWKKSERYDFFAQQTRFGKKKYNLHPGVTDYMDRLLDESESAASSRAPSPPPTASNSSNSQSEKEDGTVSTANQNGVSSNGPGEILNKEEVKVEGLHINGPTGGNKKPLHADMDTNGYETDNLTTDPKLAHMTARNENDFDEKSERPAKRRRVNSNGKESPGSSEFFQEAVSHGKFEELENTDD

[3] = biological target: Full length FLAG tagged MIER1(aa:1–512) (UniProt Q8N108); assay: as above
[4] = biological target: T1, FLAG-tagged MIER1(aa:171–512); assay: co-IP; FLAG-tagged bait transfected in HEK293F; purification on anti-FLAG resin, SDS-PAGE (Coomassie) or western blot with anti-C1QBP; a gel filtration step is not told for these panels (Figures 2B-D, 4C, 5C)

FLAG-tagged MIER1 ELM2-SANT (aa:171–350) (from UniProt Q8N108 171-350) (domain or fragment)
binding [1]: no binding

endogenous C1QBP (mature form) (from UniProt Q07021 74-282)
binding [2]: binds
binding [3]: binds
binding [4]: binds
